Measured values: the supplement of paper PMC3334620
The full ranking holds about 33,000 sequences; the median of “E-score (-0.5 to 0.5)” is about -0.0059, and the highest 2% start at about 0.26. The list shows a part of the results.

The sequences below were run against T1, Cin5 (UniProt P40917) (assay: PBM E-score (8-mer binding enrichment) (E-score (-0.5 to 0.5)); higher = stronger / more preferred TF binding). Details: protein concentration: 100 nM; construct: GST-full length.
T1 sequence: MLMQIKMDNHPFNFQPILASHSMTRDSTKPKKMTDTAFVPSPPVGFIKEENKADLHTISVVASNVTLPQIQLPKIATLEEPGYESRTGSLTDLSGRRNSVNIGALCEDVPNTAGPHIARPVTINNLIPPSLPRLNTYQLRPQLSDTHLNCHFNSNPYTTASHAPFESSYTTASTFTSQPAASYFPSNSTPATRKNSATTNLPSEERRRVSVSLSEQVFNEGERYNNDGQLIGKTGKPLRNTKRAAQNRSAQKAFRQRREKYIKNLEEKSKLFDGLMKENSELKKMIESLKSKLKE
How it was run: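 Yeast transcription factors, full-length or as DNA-binding domains, were expressed with a GST tag using PURExpress in vitro transcription/translation. At about 100-200 nM they were applied to universal all-10-mer Agilent arrays, double-stranded by primer extension on fresh or once-stripped slides. Fluorescent anti-GST detected bound protein, and masliner normalised the scans. E-scores for ungapped eight-base words, pooled with reverse complements, came from the Universal PBM Analysis Suite.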

Sequence | PBM E-score
CGACCACC | -0.0945
ATAATAGA | 0.221
GATGTTTA | 0.141
CCACCACC | -0.16
AATTGAAT | 0.0567
CGTGCACG | -0.00234
CTACCACC | -0.17
GTGACCCA | -0.126
ATCCGCGG | 0.271
CGGTAAAG | 0.0679
ACGATCTA | -0.185
CTGGACCC | -0.295
GATCGCAC | -0.0389
ACTCAAGC | -0.0189
ACTGGTCG | -0.18
GACAGCAA | 0.0467
ATGTTAAA | 0.256
CATTGCCC | -0.117
ACGGATGG | -0.018
GCCTCATA | 0.00338
ACGAGGGC | -0.0942
AGTAATCC | 0.243
AGGGCGAG | -0.13
GAAGAGTC | -0.137
CCCTGATA | -0.0991

Sequence | PBM E-score
CTGATTCA | 0.0937
CAGTTGGA | 0.0453
GACTATCA | -0.0598
ATCAAAAC | 0.133
CGTCGATA | -0.00286
AAAGGCTC | -0.285
ACCTCTTA | 0.231
TCTCACAA | 0.177
AATGAGCT | 0.0653
ATCGCAAC | 0.0824
AATATGCA | 0.0588
ATCAGACC | 0.00535
GGAAGTCC | -0.129
GATGTAGC | -0.138
ACCGTGAG | -0.226
CTAGATCA | -0.0152
TTAAGGAA | 0.0901
ACACGAAG | 0.208
AGGAAAGG | -0.353
CGTTCAAC | 0.0923
CTTGCTGC | -0.16
GATGCAAC | -0.0342
AACTCGAA | 0.0318
AGCTCATC | 0.0701
GACGGGCA | -0.123

Sequence | PBM E-score
CGCAGTAC | -0.181
TCGCCTAA | -0.0803
CCTAACAG | -0.0185
ACGTTATG | 0.239
GCTTATTA | 0.251
CATGGCTA | 0.037
GGACAGAA | 0.079
GATTCCGA | 0.159
AAACTAGT | 0.082
AAAGATTA | 0.249
CGCTCTTC | -0.198
ATGAGCGC | -0.0805
ATACGAGG | -0.0715
AGCCGCGA | -0.0527
GGACGATA | 0.0335
CGTCGCGC | -0.0413
CATCCCGC | 0.041
ACTCGCCG | 0.0846
GTACACCA | -0.0324
CAGACTCA | -0.0657
GACCCGCC | 0.0639
AGCTGCCC | 0.117
AGCGTAGA | -0.129
AATCAGGA | 0.0872
ATAAGTGA | 0.0866

Part of the list above, comma-delimited.
Sequence,PBM E-score
CCCTGATA,-0.0991
CTGATTCA,0.0937
CAGTTGGA,0.0453

(continued)

Sequence | PBM E-score
GCCAATAC | 0.0421
ATCACATG | 0.00787
ACAACGGA | 0.134
CCCCTCGG | -0.33
AAGCTCAC | -0.00045
AGATGGCT | -0.0252
ACCACGAC | -0.023
GCTTGCGA | 0.00349
ATTCATTG | 0.116
CTGATCCC | -0.041
CTACATAG | 0.0617
AAGAGCAT | 0.0355
ACATGGTG | 0.0908
ACGGGACC | -0.254
CTCGAGGA | 0.0794
ATGGCAAG | 0.115
AGTATCAG | -0.0204
CAAAATGG | 0.119
CCCGAACG | -0.163
AGCGCTTC | 0.104
CACTTGGG | -0.0336
ACCCGGGT | -0.0281
TAACGGAA | 0.322
CCCCCTTC | -0.46
CGTTACGC | -0.0798

Sequence | PBM E-score
CAACATTC | -0.106
TGCCACAA | 0.0555
CTAAAAGC | -0.101
AAATGTTC | 0.0482
AACCCATG | 0.13
CTTTGAGA | -0.0159
ATTCCGCA | -0.0146
CATGTTTA | 0.163
CCCAGGCG | -0.148
CTCTTCTC | -0.204
ACTTGCTC | -0.0492
CATTCACA | 0.0649
ACCATAAT | 0.25
ACCGACGT | 0.0399
GCACGTTA | -0.0276
ATCTACTG | 0.084
CATGTGGG | 0.0561
CACAGTGA | 0.0516
AACGGTTC | -0.182
AAAGACAA | 0.256
ACCTGTTC | 0.0381
CCGGCAAA | -0.0177
AGCACAAT | 0.105
ACACCATC | 0.0669
GTAATAAA | 0.2

For convenience, some entries already given.
Sequence | PBM E-score
AAAGACAA | 0.256
ACCTGTTC | 0.0381
CCGGCAAA | -0.0177

(list continues)

Sequence | PBM E-score
GTCAGTTA | -0.0446
CAACTTCC | 0.149
ACCTAGTG | 0.14
CACAGCTC | -0.106
AGAGACTA | -0.183
GGCACGAC | -0.165
AAGATTGG | 0.0559
AAATTCTG | 0.139
CGTCGTAA | 0.0474
AATGGGTC | -0.053
CACAGATC | 0.0227
CCGATCCC | -0.338
AGTTTGCA | 0.0867
GCGCCATA | -0.13
AAATGCAG | 0.0624
TCTTGCCA | -0.0284
TCAGGGAA | -0.0524
CCTATTAG | 0.0132
CCCCATAA | 0.00568
CGCTGGCA | -0.153
CAGCATCG | -0.16
AGGGATTC | -0.142
CCATATGC | 0.129
GCAGGACC | -0.207
GCCGGAGC | -0.302

Sequence | PBM E-score
CCCATTCG | 0.021
CCACTATA | 0.154
GTTTCCGA | 0.12
GAAATGAC | 0.168
AATATGCG | 0.236
AATTTTGC | 0.0341
AAGCCCTG | -0.226
AGAATGCC | -0.0721
TAGAAATA | 0.0863
TGGTCGAA | -0.242
AGTGAACA | 0.13
CGCTTTAG | -0.0206
GTTGTTGA | 0.196
GATTTGTA | 0.2
CTGGCCAC | -0.0521
ACCTGTCC | -0.135
GATCTATA | -0.099
CAAACCCG | -0.226
AGTTAGCC | -0.0486
ACGGATAG | 0.141
GGAACTGA | -0.0383
ACGGCCGA | 0.0311
